Measured values from the supplement of paper PMC10849652.
The other results are listed elsewhere or left out.

The chains behind the UniProt entries cited, without tags or fusion partners. Where a name states a change or a piece, a line headed by the entry shows the natural chain unless it says otherwise.
UniProt P51610: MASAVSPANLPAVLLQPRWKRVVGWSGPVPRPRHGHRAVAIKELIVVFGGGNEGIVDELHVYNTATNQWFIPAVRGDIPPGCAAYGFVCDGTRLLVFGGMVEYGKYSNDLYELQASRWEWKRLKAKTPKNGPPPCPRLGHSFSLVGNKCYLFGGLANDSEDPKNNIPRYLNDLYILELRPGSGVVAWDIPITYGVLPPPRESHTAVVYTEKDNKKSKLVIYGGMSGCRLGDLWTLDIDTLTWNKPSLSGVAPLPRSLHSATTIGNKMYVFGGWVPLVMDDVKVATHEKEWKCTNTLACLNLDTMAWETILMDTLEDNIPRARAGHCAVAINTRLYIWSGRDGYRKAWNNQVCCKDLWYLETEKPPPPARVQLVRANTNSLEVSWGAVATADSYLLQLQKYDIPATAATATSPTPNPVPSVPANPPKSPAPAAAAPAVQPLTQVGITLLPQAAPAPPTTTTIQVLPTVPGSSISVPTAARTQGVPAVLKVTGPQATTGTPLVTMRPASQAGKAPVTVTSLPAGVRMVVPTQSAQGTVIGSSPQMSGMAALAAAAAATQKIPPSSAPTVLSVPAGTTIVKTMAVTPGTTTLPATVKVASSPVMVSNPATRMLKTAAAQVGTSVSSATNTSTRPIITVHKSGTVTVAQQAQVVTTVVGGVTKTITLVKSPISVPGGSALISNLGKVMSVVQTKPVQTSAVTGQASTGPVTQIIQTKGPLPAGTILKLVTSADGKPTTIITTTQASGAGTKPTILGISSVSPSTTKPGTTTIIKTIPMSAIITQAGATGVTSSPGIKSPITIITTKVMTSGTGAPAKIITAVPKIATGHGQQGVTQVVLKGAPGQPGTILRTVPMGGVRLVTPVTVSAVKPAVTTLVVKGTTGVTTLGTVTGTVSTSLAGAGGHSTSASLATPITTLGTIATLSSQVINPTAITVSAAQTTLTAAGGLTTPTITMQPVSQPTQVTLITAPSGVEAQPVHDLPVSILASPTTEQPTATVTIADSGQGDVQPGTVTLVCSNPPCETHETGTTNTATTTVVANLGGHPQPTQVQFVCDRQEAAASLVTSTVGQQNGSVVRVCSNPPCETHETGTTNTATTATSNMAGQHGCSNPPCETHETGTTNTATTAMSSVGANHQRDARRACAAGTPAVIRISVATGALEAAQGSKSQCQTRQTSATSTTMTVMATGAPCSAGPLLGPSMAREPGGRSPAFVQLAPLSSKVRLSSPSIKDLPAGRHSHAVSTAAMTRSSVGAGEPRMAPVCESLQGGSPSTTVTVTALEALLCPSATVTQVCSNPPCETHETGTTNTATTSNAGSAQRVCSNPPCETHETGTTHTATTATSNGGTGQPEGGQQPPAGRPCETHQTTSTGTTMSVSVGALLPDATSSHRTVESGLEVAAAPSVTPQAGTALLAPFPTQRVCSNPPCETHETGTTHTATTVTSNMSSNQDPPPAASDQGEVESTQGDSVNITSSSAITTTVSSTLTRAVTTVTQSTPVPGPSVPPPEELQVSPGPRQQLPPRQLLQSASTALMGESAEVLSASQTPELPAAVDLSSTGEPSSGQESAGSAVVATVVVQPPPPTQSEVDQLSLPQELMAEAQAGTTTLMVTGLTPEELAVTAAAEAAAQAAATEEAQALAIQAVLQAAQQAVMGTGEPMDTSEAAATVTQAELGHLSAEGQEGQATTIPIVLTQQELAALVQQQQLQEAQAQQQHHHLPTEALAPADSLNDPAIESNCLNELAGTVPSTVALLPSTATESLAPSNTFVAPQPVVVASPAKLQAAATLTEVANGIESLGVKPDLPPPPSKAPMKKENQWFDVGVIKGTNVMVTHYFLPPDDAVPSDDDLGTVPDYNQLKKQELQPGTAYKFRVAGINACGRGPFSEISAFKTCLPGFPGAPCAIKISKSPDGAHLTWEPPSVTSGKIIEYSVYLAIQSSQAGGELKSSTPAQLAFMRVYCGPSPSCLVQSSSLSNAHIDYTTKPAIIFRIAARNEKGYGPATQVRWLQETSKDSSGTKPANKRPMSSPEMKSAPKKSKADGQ
UniProt Q8N442: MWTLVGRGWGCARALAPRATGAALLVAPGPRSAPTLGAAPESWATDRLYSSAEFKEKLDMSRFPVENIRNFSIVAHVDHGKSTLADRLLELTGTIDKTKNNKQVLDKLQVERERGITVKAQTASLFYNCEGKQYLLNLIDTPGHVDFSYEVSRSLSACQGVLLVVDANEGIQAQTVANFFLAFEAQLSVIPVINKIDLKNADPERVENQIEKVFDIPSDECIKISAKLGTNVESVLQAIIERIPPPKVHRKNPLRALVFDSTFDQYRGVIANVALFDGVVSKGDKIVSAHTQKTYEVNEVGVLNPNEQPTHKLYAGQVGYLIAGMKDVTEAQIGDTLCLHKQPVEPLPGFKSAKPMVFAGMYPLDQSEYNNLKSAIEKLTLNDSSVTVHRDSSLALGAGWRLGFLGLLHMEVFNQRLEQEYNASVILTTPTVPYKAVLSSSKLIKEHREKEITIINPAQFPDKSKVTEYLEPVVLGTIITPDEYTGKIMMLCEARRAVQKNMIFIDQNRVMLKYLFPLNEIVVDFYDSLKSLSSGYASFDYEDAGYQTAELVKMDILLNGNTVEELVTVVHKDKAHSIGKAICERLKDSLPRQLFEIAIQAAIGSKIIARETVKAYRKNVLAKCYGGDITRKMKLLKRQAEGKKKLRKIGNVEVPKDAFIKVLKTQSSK
UniProt O75367, whole entry, looked up: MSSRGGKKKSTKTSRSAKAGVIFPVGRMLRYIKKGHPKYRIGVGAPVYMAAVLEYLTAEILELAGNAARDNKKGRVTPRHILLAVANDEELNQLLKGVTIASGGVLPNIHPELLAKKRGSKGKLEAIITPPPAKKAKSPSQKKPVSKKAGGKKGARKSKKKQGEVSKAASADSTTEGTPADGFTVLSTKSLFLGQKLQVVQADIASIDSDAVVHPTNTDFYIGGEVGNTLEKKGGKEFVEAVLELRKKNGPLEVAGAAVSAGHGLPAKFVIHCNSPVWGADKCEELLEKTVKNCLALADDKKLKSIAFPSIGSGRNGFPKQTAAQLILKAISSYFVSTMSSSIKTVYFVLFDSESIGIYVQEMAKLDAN
UniProt Q8IYU2: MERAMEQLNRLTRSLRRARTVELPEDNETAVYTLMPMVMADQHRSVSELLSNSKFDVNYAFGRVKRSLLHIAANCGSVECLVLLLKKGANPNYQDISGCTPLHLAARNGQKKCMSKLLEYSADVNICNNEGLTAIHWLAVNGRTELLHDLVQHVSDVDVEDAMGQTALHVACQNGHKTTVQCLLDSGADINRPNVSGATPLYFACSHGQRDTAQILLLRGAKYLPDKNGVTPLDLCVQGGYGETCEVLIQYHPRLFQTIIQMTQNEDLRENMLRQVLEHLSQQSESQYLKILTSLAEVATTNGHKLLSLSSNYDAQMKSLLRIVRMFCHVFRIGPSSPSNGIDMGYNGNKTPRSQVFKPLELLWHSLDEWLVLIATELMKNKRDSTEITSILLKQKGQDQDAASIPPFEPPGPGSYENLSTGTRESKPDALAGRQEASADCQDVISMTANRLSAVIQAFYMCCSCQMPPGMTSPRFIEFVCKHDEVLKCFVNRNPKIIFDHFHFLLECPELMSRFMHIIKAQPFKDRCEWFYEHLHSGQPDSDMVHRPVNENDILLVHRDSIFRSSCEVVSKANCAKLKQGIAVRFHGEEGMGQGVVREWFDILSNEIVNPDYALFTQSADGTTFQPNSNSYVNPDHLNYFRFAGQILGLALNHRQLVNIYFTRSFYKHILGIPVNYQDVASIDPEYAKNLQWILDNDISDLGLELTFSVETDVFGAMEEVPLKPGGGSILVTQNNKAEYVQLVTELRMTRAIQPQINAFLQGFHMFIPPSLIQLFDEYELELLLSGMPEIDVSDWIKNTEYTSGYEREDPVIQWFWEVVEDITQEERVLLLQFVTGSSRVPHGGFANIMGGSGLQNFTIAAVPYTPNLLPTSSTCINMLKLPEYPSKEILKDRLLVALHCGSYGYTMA
UniProt Q96MH2: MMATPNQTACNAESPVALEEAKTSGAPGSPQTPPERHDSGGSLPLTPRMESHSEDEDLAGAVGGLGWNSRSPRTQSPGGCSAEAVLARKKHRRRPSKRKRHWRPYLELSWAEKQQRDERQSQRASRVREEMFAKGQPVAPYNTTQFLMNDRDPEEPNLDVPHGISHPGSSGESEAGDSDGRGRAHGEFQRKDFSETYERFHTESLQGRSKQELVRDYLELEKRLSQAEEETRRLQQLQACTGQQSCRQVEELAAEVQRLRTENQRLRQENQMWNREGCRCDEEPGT
UniProt Q9BSE4: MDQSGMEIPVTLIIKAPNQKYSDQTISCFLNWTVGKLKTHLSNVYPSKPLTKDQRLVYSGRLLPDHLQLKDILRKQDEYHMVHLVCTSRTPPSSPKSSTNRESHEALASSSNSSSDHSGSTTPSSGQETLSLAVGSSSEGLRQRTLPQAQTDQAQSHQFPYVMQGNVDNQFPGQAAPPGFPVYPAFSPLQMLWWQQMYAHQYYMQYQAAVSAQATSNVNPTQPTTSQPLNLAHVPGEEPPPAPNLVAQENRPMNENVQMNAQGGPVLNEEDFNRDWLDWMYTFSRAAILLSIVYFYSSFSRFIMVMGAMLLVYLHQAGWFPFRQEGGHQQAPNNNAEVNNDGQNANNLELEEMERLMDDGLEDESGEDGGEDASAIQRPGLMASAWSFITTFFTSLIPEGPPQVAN
UniProt P32780: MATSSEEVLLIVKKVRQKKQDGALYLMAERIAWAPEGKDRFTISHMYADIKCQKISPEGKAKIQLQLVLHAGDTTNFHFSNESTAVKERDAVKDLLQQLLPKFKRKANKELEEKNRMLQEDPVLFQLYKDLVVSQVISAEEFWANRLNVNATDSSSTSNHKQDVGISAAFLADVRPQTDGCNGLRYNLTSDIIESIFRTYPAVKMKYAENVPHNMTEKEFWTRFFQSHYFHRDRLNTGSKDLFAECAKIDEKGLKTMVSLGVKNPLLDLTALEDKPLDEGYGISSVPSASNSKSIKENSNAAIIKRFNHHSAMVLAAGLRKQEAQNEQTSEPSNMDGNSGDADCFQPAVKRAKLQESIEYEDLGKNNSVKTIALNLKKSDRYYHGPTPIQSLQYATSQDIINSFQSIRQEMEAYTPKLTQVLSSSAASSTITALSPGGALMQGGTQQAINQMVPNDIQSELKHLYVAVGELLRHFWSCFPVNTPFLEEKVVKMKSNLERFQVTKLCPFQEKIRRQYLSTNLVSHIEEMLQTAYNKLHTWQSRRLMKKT
UniProt Q6PII5: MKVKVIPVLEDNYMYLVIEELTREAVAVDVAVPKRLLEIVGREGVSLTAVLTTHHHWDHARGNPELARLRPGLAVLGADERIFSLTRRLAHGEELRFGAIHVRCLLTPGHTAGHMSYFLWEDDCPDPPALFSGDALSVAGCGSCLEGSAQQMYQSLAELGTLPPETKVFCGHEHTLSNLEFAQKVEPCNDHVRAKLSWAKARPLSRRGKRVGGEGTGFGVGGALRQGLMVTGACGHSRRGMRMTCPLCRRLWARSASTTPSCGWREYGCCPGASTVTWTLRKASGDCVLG
UniProt Q8WVB3: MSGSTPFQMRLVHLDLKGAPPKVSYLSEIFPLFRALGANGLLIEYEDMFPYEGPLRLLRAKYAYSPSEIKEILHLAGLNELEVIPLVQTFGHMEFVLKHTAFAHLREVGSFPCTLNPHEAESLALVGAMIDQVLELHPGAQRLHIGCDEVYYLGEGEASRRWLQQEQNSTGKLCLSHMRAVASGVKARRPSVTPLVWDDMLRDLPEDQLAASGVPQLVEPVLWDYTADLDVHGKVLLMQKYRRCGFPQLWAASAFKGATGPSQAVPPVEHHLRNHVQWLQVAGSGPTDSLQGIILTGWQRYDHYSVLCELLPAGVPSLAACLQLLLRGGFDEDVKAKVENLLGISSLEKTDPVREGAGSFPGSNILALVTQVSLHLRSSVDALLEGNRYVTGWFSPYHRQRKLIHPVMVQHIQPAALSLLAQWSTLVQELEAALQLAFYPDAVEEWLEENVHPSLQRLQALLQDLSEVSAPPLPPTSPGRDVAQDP
UniProt P48637: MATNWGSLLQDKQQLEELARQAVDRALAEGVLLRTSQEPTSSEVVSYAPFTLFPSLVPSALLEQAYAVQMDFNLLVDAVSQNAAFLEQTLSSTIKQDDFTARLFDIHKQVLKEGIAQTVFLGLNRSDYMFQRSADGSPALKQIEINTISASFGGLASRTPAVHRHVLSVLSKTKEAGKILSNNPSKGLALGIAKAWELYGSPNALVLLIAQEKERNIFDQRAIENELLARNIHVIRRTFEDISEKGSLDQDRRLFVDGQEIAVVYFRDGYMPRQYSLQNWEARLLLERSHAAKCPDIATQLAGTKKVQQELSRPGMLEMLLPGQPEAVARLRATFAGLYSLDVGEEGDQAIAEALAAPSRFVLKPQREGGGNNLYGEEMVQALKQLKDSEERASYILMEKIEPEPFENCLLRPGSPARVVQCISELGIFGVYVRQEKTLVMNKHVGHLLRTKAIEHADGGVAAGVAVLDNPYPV

How the values were obtained:
Assay in all cases: log2 fold change, soluble protein after heating vs DMSO (PISA); higher = thermal stabilisation; K562 cells, 10 uM, 30 min; active = over 0.2 and 3.5 SD of the protein, either way, in both replicates (recomputed)
[1] = compound: CC1=C(SC2=C1C(=N[C@H](C3=NN=C(N32)C)CC(=O)N)C4=CC=C(C=C4)Cl)C
In short: (§1)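 K562 cells at 2×10^6 cells/mL were given 10 μM compound for 30 min. Aliquots then went through 3 min of heating across 48°C-58°C, were pooled, and were extracted in PBS with 0.5% NP-40 at 4°C, and the supernatant after 21,000xg for 90 min was quantified by TMTpro 16plex LC-MS/MS with channel sums equalised. Thermal stability relative to control samples, from duplicates, is given as log2 fold change.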

[2] = compound: Cc1sc2c(c1C)C(c1ccc(Cl)cc1)=N[C@@H](CC(=O)OC(C)(C)C)c1nnc(C)n1-2
In short: as §1

[3] = compound: c1ccc([C@@H]2C[C@H]2NC2CCNCC2)cc1
In short: as §1

[4] = compound: CC1=C2C(=CC=C1)N=C(N(C2=O)C3=CC=CC=C3C)CN4C=NC5=C(N=CN=C54)N
In short: as §1

[5] = compound: C1=CC=C(C=C1)[C@H](COC2=CC3=C(C=C2)NC(=O)N3)NC(=O)C4=CC=CN(C4=O)CC5=CC(=C(C=C5)F)F
In short: as §1

Measured: log2 fold change

HES1 (UniProt Q14469)
inactive: [1] 0.091 | [2] -0.076 | [3] 0.057

HACD2 (UniProt Q6Y1H2)
inactive: [1] -0.028 | [2] 0.067 | [3] 0.018

HCFC1 (UniProt P51610)
inactive: [4] -0.061 | [2] -0.018

GUF1 (UniProt Q8N442)
inactive: [4] 0.014 | [2] -0.126

H2AFY (UniProt O75367)
inactive: [5] 0.029 | [1] -0.169 | [2] -0.4 | [3] 0.02

HAUS5 (UniProt O94927)
inactive: [2] 0.293

HACE1 (UniProt Q8IYU2)
inactive: [2] 0.07

HELZ (UniProt P42694)
inactive: [5] -0.012 | [1] -0.196 | [4] -0.066 | [3] 0.135

H6PD (UniProt O95479)
inactive: [1] -0.11 | [4] 0.304 | [2] -0.05 | [3] -0.075

HECTD4 (UniProt Q9Y4D8)
inactive: [4] 0.023

GSPT2 (UniProt Q8IYD1)
inactive: [5] -0.02 | [1] -0.06 | [4] 0.087 | [3] 0.07

HEXIM2 (UniProt Q96MH2)
inactive: [4] 0.08

GTF2I (UniProt P78347)
inactive: [5] -0.07 | [1] 0.077 | [4] 0.104 | [2] -0.037 | [3] 0.007

HAUS8 (UniProt Q9BT25)
inactive: [1] -0.402 | [4] 0.078 | [3] 0.03

HAUS7 isoform 2 (UniProt Q99871)
inactive: [4] 0.129

HERPUD2 (UniProt Q9BSE4)
inactive: [5] 0.064 | [1] 0.01 | [4] 0.058 | [3] 0.155

HADH isoform 2 (UniProt Q16836)
inactive: [5] -0.011 | [1] -0.003 | [4] -0.017 | [2] -0.001 | [3] 0.032

GTSE1 (UniProt Q9NYZ3)
inactive: [5] -0.104 | [1] -0.2 | [4] -0.042 | [2] 0.098 | [3] 0.042

GTF2H1 (UniProt P32780)
inactive: [1] -0.06 | [4] -0.007 | [3] 0.021

HAGHL (UniProt Q6PII5)
inactive: [5] 0.109 | [1] 0.021 | [2] 0.077 | [3] 0.023

HEXD isoform 2 (UniProt Q8WVB3)
inactive: [4] -0.033

HEATR1 (UniProt Q9H583)
inactive: [5] 0.043 | [4] 0.016 | [2] -0.018

Quoted at random: 2 records from the list.
GTF2H1 (UniProt P32780)
inactive: [1] -0.06 | [4] -0.007 | [3] 0.021

HEXD isoform 2 (UniProt Q8WVB3)
inactive: [4] -0.033

Next part:

HGF (UniProt P14210)
inactive: [5] -0.011 | [1] -0.101 | [2] 0.103 | [3] 0.093

HERPUD1 (UniProt Q15011)
inactive: [4] 0.016 | [2] -0.049

GZF1 (UniProt Q9H116)
inactive: [4] -0.273

HDGF (UniProt P51858)
inactive: [5] 0.011 | [1] 0.012 | [4] 0.036 | [2] -0.015 | [3] 0.017

GSS (UniProt P48637)
inactive: [5] 0.016 | [1] 0.02 | [4] 0.025 | [2] -0.004 | [3] 0.006

HAUS6 (UniProt Q7Z4H7)
inactive: [5] 0.029 | [1] -0.2 | [2] 0.08 | [3] 0.098

GTPBP8 (UniProt Q8N3Z3)
inactive: [4] 0.044 | [2] -0.034

GTF2H4 (UniProt Q92759)
inactive: [1] -0.383 | [4] 0.026 | [2] 0.287 | [3] -0.152

HAUS3 (UniProt Q68CZ6)
inactive: [1] -0.145 | [4] -0.234 | [2] 0.231 | [3] 0
